Record: PubChem BioAssay AID1159584 (Peter MacCallum Cancer Centre, 2016)
The deposit covers about 18,000 reagents; shown is an unselected part. Reagents against one gene are numbered here. Not stated in the record: the amount of reagent, the time to read-out.

Screen: 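Genes that CDH1-null MCF10A cells selectively depend on to survive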 (primary screen)
Cell system: human MCF10A breast epithelial cells, parental and CDH1-null
Reagent: siRNA against human genes
Read-out: 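Cell viability by CellTiter-Glo ATP luminescence, each line scaled to the mean of mock wells across plates, then CDH1-null over parental ratio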
Direction: CDH1-null / parental viability ratio: higher = CDH1-null cells survive relatively better than parental; CDH1-null viability vs mock: higher = more viable CDH1-null cells; parental viability vs mock: higher = more viable parental cells

gene symbol	reagent	CDH1-null / parental viability ratio	CDH1-null viability vs mock (fraction of mock)	parental viability vs mock (fraction of mock)
LRRC4C (GeneID 57689)	1	0.91	0.78	0.86
HMGCS2 (GeneID 3158)	1	0.78	0.8	1.02
ETFDH (GeneID 2110)	1	0.93	0.53	0.57
KRTAP5-11 (GeneID 440051)	1	1.28	0.64	0.5
GRAP2 (GeneID 9402)	1	0.98	0.64	0.65
MRPL50 (GeneID 54534)	1	0.85	0.47	0.55
GMPR (GeneID 2766)	1	1.1	1.06	0.96
GAA (GeneID 2548)	1	1.22	0.88	0.72
MRC1 (GeneID 4360)	1	0.93	0.92	0.99
MRC1 (GeneID 4360)	2	0.93	0.64	0.69
SLITRK4 (GeneID 139065)	1	1.32	0.96	0.73
KAT8 (GeneID 84148)	1	0.94	0.62	0.66
LHPP (GeneID 64077)	1	1.26	0.83	0.66
NKX2-1 (GeneID 7080)	1	0.89	0.8	0.9
NME6 (GeneID 10201)	1	1.01	0.85	0.84
SCAMP1 (GeneID 9522)	1	1.26	0.96	0.76
CASQ2 (GeneID 845)	1	1.02	0.54	0.53
CXXC1 (GeneID 30827)	1	0.87	0.48	0.55
CEP170B (GeneID 283638)	1	1.2	0.77	0.64
HYI (GeneID 81888)	1	0.97	1.09	1.12
NYX (GeneID 60506)	1	0.97	0.33	0.34
SC5D (GeneID 6309)	1	1.11	0.98	0.88
BNIP3L (GeneID 665)	1	0.82	0.64	0.78
UBE4B (GeneID 10277)	1	1.16	1.04	0.9
TMEM204 (GeneID 79652)	1	1.05	0.85	0.81
MYL4 (GeneID 4635)	1	0.79	0.26	0.33
NFASC (GeneID 23114)	1	1.01	0.83	0.82
PGBD4 (GeneID 161779)	1	1	1.08	1.08
ZNF648 (GeneID 127665)	1	0.92	0.81	0.88
DNMT1 (GeneID 1786)	1	0.99	0.75	0.76
TPBG (GeneID 7162)	1	0.8	0.56	0.7
HSPA4 (GeneID 3308)	1	0.98	0.93	0.95
SLC10A1 (GeneID 6554)	1	0.97	0.76	0.78
SRSF1 (GeneID 6426)	1	0.88	0.42	0.48
TBC1D21 (GeneID 161514)	1	1.07	0.96	0.9
SCRN3 (GeneID 79634)	1	0.98	0.89	0.91
BCAR1 (GeneID 9564)	1	0.8	0.36	0.45
NDST2 (GeneID 8509)	1	1.31	1.05	0.8
SMG7 (GeneID 9887)	1	1.06	0.74	0.7
DNAJC16 (GeneID 23341)	1	1.04	1.06	1.02
ZBTB20 (GeneID 26137)	1	0.85	0.68	0.8
TFF1 (GeneID 7031)	1	1.35	0.96	0.71
RIOK2 (GeneID 55781)	1	1.12	0.92	0.82
EDN1 (GeneID 1906)	1	0.99	0.72	0.73
EPRS1 (GeneID 2058)	1	1	0.98	0.98
MED23 (GeneID 9439)	1	0.98	0.88	0.9
HPS5 (GeneID 11234)	1	1.05	0.78	0.74
NOXO1 (GeneID 124056)	1	1.05	0.9	0.86
ELOVL6 (GeneID 79071)	1	1.01	1	0.99
PLAG1 (GeneID 5324)	1	1.22	0.9	0.74
NTF3 (GeneID 4908)	1	0.85	0.66	0.78
BANK1 (GeneID 55024)	1	0.79	0.74	0.94
RENBP (GeneID 5973)	1	1.02	1.1	1.08
SPTA1 (GeneID 6708)	1	0.98	0.9	0.92
PLPP5 (GeneID 84513)	1	0.86	0.69	0.8
LEMD3 (GeneID 23592)	1	1.45	1.07	0.74
CHST10 (GeneID 9486)	1	0.81	0.72	0.89
CXCL12 (GeneID 6387)	1	1.28	0.74	0.58
SPEF1 (GeneID 25876)	1	1.19	0.7	0.59
ZNF764 (GeneID 92595)	1	0.88	0.8	0.91
RAB8B (GeneID 51762)	1	0.97	0.76	0.78
PER1 (GeneID 5187)	1	1.27	0.9	0.71
NFYB (GeneID 4801)	1	0.94	0.83	0.88
SBNO1 (GeneID 55206)	1	1.19	0.56	0.47
PRICKLE2 (GeneID 166336)	1	0.79	0.6	0.76
PLPPR2 (GeneID 64748)	1	0.71	0.55	0.77
ARL6IP4 (GeneID 51329)	1	1.11	0.91	0.82
CCDC191 (GeneID 57577)	1	1.18	0.8	0.68
HNRNPH1 (GeneID 3187)	1	1.27	1.09	0.86
ROCK1 (GeneID 6093)	1	0.94	0.92	0.98
ZXDA (GeneID 7789)	1	0.98	0.88	0.9
CIMIP7 (GeneID 646498)	1	1	0.86	0.86
COG3 (GeneID 83548)	1	0.96	1.03	1.07
GPRASP1 (GeneID 9737)	1	0.85	0.82	0.96
EFCAB7 (GeneID 84455)	1	0.76	0.8	1.05
AQP2 (GeneID 359)	1	1.03	0.8	0.78
COA3 (GeneID 28958)	1	0.77	0.51	0.66
PPP1R13L (GeneID 10848)	1	1.34	0.78	0.58
UBE2T (GeneID 29089)	1	1.29	0.71	0.55
SH3BP5 (GeneID 9467)	1	1.08	0.7	0.65
OR6C4 (GeneID 341418)	1	0.94	0.81	0.86
ZNF833P (GeneID 401898)	1	0.84	0.7	0.83
GRK2 (GeneID 156)	1	0.77	0.65	0.84
NECAB3 (GeneID 63941)	1	0.79	0.62	0.78
GLRX5 (GeneID 51218)	1	1.18	0.92	0.78
LRP8 (GeneID 7804)	1	0.95	1.04	1.1
LAMTOR5 (GeneID 10542)	1	0.76	0.52	0.68

A stretch of the results above, for reference:
gene symbol	reagent	CDH1-null / parental viability ratio	CDH1-null viability vs mock (fraction of mock)	parental viability vs mock (fraction of mock)
EPRS1 (GeneID 2058)	1	1	0.98	0.98
MED23 (GeneID 9439)	1	0.98	0.88	0.9
HPS5 (GeneID 11234)	1	1.05	0.78	0.74
NOXO1 (GeneID 124056)	1	1.05	0.9	0.86
ELOVL6 (GeneID 79071)	1	1.01	1	0.99
PLAG1 (GeneID 5324)	1	1.22	0.9	0.74
NTF3 (GeneID 4908)	1	0.85	0.66	0.78
BANK1 (GeneID 55024)	1	0.79	0.74	0.94
RENBP (GeneID 5973)	1	1.02	1.1	1.08
SPTA1 (GeneID 6708)	1	0.98	0.9	0.92
PLPP5 (GeneID 84513)	1	0.86	0.69	0.8
LEMD3 (GeneID 23592)	1	1.45	1.07	0.74
CHST10 (GeneID 9486)	1	0.81	0.72	0.89
